Measured values reported in the supplement of paper PMC6411743.
± gives the standard deviation of the averaged measurements. The entries are a selection whose mix differs from that of the whole data set. Small differences around the control level are noise.

By UniProt entry, the sequences of proteins in these tests, tags left out. Where a name states a change or a piece, a line headed by the entry shows the natural chain unless it says otherwise.
UniProt Q9UGP8: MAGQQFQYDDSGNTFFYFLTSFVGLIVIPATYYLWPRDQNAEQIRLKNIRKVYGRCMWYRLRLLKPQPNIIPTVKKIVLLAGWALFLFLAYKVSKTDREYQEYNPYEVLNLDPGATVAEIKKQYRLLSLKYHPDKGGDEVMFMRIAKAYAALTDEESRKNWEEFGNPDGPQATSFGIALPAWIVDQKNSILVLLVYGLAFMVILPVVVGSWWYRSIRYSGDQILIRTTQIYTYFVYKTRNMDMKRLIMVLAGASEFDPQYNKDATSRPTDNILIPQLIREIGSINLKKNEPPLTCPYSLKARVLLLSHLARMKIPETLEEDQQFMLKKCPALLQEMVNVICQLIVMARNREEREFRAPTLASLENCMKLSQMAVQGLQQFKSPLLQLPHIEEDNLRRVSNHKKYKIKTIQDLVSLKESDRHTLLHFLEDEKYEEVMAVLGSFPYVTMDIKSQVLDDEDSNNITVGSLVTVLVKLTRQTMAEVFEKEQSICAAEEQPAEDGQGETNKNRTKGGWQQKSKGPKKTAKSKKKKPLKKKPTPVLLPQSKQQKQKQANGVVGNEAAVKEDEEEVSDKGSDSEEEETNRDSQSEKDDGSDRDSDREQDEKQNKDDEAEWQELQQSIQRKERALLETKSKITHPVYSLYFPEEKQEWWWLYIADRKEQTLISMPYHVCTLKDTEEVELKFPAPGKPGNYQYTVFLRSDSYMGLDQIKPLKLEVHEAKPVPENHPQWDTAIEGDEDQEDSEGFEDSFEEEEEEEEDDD
UniProt Q9UJA5: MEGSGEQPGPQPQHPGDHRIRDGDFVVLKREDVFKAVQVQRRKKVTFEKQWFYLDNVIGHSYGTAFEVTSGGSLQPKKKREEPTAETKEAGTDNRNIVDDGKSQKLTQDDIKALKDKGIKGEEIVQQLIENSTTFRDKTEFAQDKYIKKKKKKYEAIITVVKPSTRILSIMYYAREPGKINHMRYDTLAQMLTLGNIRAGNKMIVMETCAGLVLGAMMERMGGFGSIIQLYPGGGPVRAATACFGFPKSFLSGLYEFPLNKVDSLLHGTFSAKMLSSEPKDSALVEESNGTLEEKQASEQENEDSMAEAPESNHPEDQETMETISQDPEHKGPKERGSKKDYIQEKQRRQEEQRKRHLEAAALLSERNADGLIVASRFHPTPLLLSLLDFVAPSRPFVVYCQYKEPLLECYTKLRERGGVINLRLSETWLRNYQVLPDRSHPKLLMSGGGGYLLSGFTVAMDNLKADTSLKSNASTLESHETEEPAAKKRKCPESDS
UniProt Q9Y2T2: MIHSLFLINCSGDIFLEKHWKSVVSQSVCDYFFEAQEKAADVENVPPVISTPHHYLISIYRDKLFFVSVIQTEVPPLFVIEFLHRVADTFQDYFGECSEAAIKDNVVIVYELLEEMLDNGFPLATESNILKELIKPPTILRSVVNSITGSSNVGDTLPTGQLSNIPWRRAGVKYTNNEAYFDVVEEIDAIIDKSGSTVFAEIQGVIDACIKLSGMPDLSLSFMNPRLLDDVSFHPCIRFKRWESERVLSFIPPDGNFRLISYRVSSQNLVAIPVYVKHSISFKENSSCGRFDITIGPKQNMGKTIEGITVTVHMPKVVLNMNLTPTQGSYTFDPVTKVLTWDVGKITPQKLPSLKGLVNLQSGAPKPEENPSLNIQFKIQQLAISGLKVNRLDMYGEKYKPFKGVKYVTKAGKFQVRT
UniProt Q9Y3C6: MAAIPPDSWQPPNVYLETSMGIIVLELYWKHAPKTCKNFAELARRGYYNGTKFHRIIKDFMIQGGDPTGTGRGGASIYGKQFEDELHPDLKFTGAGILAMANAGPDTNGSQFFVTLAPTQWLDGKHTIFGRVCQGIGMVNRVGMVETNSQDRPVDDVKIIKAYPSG
UniProt Q9UMY1: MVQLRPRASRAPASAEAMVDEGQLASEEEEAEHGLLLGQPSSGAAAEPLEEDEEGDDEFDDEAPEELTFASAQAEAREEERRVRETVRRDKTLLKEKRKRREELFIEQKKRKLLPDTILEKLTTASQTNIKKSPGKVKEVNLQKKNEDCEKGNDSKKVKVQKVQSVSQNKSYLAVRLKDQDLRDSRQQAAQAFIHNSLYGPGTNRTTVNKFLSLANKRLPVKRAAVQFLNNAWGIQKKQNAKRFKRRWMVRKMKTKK
UniProt Q9Y2L9: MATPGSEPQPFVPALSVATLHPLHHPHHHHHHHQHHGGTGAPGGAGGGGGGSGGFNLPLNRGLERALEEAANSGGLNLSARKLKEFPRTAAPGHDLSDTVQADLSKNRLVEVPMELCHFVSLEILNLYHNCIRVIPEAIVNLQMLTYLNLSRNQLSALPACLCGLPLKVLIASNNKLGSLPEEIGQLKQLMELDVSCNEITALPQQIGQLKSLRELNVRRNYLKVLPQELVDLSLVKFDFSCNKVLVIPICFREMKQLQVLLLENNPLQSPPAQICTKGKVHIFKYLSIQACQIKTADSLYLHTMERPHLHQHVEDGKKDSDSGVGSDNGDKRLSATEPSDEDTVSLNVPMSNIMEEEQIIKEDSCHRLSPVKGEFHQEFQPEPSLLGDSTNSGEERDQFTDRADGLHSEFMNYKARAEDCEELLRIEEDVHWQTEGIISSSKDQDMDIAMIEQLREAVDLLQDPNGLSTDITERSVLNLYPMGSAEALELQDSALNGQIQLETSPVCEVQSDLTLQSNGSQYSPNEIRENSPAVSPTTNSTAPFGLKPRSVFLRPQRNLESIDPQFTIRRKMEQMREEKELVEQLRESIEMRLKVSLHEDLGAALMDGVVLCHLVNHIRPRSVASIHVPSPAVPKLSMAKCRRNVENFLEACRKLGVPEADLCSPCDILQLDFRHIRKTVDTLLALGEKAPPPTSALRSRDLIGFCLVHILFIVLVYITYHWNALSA
UniProt Q9Y3A2: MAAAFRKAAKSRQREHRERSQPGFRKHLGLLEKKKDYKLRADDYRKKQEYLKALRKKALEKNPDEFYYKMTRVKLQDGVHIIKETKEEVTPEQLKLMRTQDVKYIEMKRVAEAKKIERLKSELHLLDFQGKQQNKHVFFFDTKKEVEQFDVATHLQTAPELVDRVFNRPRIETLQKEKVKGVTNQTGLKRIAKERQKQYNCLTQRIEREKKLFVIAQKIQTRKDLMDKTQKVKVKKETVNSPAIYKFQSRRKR
UniProt Q9UGM6: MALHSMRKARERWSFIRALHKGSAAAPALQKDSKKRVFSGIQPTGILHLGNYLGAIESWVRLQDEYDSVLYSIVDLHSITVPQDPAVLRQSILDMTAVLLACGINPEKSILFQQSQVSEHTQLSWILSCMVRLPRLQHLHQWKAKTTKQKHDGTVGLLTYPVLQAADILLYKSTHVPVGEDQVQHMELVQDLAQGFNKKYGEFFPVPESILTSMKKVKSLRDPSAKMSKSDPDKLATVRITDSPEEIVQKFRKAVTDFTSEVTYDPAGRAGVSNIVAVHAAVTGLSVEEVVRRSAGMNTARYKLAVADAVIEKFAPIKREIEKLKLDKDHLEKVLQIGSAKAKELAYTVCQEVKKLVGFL
UniProt Q9UKY1: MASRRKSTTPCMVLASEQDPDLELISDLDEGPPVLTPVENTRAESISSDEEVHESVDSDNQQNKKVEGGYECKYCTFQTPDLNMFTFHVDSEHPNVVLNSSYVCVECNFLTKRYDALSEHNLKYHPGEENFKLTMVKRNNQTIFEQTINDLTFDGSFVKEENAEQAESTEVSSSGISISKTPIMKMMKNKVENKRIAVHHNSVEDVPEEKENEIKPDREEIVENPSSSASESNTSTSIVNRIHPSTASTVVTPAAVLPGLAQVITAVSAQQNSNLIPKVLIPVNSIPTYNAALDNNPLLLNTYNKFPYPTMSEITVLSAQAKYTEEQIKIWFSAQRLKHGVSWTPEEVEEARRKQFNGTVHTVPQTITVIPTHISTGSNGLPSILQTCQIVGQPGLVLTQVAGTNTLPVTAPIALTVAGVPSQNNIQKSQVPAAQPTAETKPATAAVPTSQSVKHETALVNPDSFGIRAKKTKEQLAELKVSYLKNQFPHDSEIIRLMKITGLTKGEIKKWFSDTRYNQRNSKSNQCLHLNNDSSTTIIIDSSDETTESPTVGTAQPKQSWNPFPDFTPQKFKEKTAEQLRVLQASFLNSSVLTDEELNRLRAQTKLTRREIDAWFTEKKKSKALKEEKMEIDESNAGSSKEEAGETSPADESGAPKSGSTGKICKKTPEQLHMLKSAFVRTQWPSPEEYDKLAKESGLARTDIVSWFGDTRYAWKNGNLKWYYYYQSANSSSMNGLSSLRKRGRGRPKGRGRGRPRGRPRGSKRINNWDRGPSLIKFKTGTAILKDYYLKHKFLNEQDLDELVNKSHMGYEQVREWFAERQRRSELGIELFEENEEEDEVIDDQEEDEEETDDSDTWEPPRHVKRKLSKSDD
UniProt Q9UQ80: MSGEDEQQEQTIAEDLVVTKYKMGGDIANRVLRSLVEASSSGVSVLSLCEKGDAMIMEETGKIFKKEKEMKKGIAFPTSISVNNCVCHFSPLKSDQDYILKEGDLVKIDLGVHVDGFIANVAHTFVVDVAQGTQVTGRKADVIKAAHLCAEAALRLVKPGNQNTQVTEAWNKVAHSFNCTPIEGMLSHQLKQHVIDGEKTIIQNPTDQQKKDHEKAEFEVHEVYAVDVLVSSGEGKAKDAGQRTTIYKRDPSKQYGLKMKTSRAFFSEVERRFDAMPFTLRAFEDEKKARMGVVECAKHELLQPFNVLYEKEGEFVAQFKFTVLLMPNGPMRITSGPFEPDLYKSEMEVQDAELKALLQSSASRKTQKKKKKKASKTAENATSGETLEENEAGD
UniProt Q9UPY8, whole entry: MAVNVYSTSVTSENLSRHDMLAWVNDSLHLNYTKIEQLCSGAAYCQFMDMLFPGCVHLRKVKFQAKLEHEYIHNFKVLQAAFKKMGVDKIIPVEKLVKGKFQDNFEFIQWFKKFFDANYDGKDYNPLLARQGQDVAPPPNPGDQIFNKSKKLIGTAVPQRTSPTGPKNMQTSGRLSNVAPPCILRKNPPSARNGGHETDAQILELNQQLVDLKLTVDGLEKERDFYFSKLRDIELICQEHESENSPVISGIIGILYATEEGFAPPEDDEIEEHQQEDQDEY
UniProt Q9UHL0: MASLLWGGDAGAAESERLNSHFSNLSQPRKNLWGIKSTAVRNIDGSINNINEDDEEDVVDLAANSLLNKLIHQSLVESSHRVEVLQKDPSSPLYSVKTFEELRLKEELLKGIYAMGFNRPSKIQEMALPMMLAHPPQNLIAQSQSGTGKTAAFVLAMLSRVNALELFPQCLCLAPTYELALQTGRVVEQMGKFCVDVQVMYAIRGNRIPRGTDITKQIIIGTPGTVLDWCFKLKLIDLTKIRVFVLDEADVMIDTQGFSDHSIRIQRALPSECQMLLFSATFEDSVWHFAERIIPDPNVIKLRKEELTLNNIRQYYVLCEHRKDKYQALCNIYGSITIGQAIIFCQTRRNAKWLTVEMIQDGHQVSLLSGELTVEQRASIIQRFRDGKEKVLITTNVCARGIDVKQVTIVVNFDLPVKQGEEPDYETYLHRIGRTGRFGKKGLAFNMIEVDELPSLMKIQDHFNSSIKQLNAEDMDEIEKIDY
UniProt Q9UEY8: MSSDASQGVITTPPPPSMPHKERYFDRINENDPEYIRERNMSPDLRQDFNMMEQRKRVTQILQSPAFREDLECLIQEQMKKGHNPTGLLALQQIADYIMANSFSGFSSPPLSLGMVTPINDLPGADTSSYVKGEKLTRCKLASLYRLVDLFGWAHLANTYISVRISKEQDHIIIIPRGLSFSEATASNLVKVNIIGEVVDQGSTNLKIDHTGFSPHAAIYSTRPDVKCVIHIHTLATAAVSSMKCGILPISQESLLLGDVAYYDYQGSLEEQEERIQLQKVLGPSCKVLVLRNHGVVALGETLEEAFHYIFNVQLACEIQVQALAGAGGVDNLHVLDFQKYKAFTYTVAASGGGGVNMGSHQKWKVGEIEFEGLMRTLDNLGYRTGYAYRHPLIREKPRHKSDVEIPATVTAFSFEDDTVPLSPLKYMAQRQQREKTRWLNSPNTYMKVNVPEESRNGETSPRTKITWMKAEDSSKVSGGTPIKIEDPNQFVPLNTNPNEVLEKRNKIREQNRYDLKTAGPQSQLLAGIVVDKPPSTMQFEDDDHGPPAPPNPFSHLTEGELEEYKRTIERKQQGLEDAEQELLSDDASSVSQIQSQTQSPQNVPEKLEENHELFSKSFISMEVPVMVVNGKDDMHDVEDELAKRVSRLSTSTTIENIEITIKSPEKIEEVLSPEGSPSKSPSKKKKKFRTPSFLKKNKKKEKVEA
UniProt Q9UEE5: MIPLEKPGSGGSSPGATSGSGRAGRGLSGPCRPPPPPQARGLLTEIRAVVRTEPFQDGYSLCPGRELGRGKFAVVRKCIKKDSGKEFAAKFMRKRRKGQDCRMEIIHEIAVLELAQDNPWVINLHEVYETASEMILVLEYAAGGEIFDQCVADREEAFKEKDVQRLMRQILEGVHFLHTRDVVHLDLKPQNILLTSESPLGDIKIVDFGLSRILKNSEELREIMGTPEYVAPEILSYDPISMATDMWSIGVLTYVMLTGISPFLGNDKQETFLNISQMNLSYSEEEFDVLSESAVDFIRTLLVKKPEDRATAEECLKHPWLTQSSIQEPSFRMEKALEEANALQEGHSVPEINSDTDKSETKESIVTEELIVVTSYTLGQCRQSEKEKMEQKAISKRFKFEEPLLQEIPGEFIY

Compound: Nc1ncnc2c1ncn2[C@@H]1O[C@H](COP(=O)(O)OP(=O)(O)NP(=O)(O)O)[C@@H](O)[C@H]1O [adenylyl imidodiphosphate]
Assay: NP40-soluble protein abundance relative to vehicle (solubility fold change) (ratio); higher = more soluble protein in presence of AMP-PNP
Outline: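 Crude Jurkat lysate, prepared by Dounce homogenisation, was exposed to eight concentrations from 0.1 to 10 mM for 10 min at room temperature and then 3 min at 37 °C. Solubilisation used 0.8% NP40 with benzonase for 60 min at 4 °C, followed by ultracentrifugation and TMT labelling of the supernatant for LC-MS/MS. After vsn normalisation of intensities, each value is the fold change against the detergent-processed vehicle within each replicate, across three independent experiments.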

Target	NP40-soluble protein abundance (concentration: 0.1mM)	NP40-soluble protein abundance (concentration: 0.5mM)
FAF1 (UniProt Q9UNN5)	0.994 ± 0.017	0.996 ± 0.036
UniProt Q9UPU7 and related entries	1.01 ± 0.026	1.03 ± 0.092
SEC63 (UniProt Q9UGP8)	0.989 ± 0.029	0.994 ± 0.034
AMDHD2 (UniProt Q9Y303)	1.02 ± 0.026	0.977 ± 0.069
UniProt Q9UIB8 and related entries	0.9731 ± 0.0057	0.953 ± 0.02
TRMT6 (UniProt Q9UJA5)	1.02 ± 0.018	0.989 ± 0.0043
ZNHIT2 (UniProt Q9UHR6)	0.991 ± 0.027	0.9994 ± 0.005
UniProt Q9Y2K1 and related entries	0.983 ± 0.056	0.982 ± 0.06
UniProt Q9Y2X9 and related entries	0.977 ± 0.039	1 ± 0.044
UniProt Q9ULJ3 and related entries	0.9964 ± 0.0089	1.005 ± 0.0063
UniProt Q9UER7 and related entries	1.02 ± 0.048	1.01 ± 0.05
TUBE1 (UniProt Q9UJT0)	0.999 ± 0.026	0.994 ± 0.026
UniProt Q9Y282 and related entries	1 ± 0.025	1.02 ± 0.021
UniProt Q9UKV8	0.987 ± 0.015	0.98 ± 0.021
CARHSP1 (UniProt Q9Y2V2)	1 ± 0.014	1.03 ± 0.051
AP3M1 (UniProt Q9Y2T2)	1.02 ± 0.019	0.988 ± 0.033
UniProt Q9UQ13 and related entries	1.03 ± 0.026	1.01 ± 0.018
ASF1A (UniProt Q9Y294)	0.978 ± 0.046	0.963 ± 0.14
UniProt Q9UL63 and related entries	1 ± 0.066	0.987 ± 0.065
UniProt Q9Y2S0 and related entries	0.999 ± 0.067	1.02 ± 0.059

Target	NP40-soluble protein abundance (concentration: 0.1mM)	NP40-soluble protein abundance (concentration: 0.5mM)
UniProt Q9UJU6 and related entries	1.08 ± 0.066	1 ± 0.014
PARP4 (UniProt Q9UKK3)	0.989 ± 0.0085	0.9913 ± 0.0061
MAN1B1 (UniProt Q9UKM7)	1.019 ± 0.0086	1.035 ± 0.0025
UniProt Q9UGJ1 and related entries	1.05 ± 0.073	1.03 ± 0.07
UBE2J1 (UniProt Q9Y385)	0.949 ± 0.059	0.935 ± 0.019
PPIL1 (UniProt Q9Y3C6)	0.9952 ± 0.005	1.02 ± 0.048
UniProt Q9Y222 and related entries	0.976 ± 0.011	0.99 ± 0.031
NOL7 (UniProt Q9UMY1)	0.972 ± 0.032	1.02 ± 0.035
UniProt Q9Y312 and related entries	0.971 ± 0.028	0.935 ± 0.061
UniProt Q9ULK4 and related entries	1.02 ± 0.044	1 ± 0.063
UniProt Q9Y2X0-2|Q9Y2X0-3|Q9Y2X0	1.006 ± 0.0028	0.937 ± 0.096
UniProt Q9UG63 and related entries	1.01 ± 0.031	1 ± 0.047
YEATS2 (UniProt Q9ULM3)	0.984 ± 0.013	0.9863 ± 0.0076
MAGED2 (UniProt Q9UNF1)	0.989 ± 0.026	0.991 ± 0.034
UniProt Q9UKB1 and related entries	0.993 ± 0.026	0.998 ± 0.039
UniProt Q9Y2L9 and related entries	1 ± 0.044	1.01 ± 0.029
UniProt Q9UK76	1 ± 0.022	1.03 ± 0.045
UniProt Q9Y2V7 and related entries	0.9853 ± 0.0041	0.9969 ± 0.0088
UTP11 (UniProt Q9Y3A2)	0.995 ± 0.039	1.02 ± 0.015
UniProt Q9UNM6 and related entries	1.005 ± 0.0047	0.949 ± 0.078

Target	NP40-soluble protein abundance (concentration: 0.1mM)	NP40-soluble protein abundance (concentration: 0.5mM)
MED13 (UniProt Q9UHV7)	1.01 ± 0.034	1.03 ± 0.056
UniProt Q9Y316 and related entries	1.04 ± 0.074	0.985 ± 0.099
SLC39A10 (UniProt Q9ULF5)	0.963 ± 0.022	0.971 ± 0.053
GNPTG (UniProt Q9UJJ9)	0.95 ± 0.026	0.989 ± 0.016
UniProt Q9UJD0	0.992 ± 0.02	1.01 ± 0.024
WARS2 (UniProt Q9UGM6)	1 ± 0.024	1 ± 0.027
LRWD1 (UniProt Q9UFC0)	1.01 ± 0.021	0.991 ± 0.028
ZHX1 (UniProt Q9UKY1)	0.996 ± 0.02	1.02 ± 0.041
CPSF3 (UniProt Q9UKF6)	1.01 ± 0.014	0.9955 ± 0.0096
SUGT1 (UniProt Q9Y2Z0)	0.9897 ± 0.0065	1.016 ± 0.0097
PA2G4 (UniProt Q9UQ80)	0.98 ± 0.032	1.02 ± 0.063
MAPRE3 (UniProt Q9UPY8)	0.994 ± 0.041	0.994 ± 0.066
UniProt Q9UHL0 and related entries	1.16 ± 0.015	0.949 ± 0.08
UniProt Q9UM21	1 ± 0.042	0.974 ± 0.024
ADD3 (UniProt Q9UEY8)	1.003 ± 0.0086	0.999 ± 0.017
AP4E1 (UniProt Q9UPM8)	1.01 ± 0.043	0.994 ± 0.023
UniProt Q9UEE5	1.05 ± 0.058	1.04 ± 0.046
UniProt Q9Y3D8 and related entries	1.016 ± 0.0039	1.02 ± 0.015
UniProt Q9UNA1 and related entries	0.9857 ± 0.0029	0.9962 ± 0.0088

Single records (already shown).
UniProt Q9Y2V7 and related entries is entered as NP40-soluble protein abundance (concentration: 0.1mM): 0.9853 ± 0.0041; NP40-soluble protein abundance (concentration: 0.5mM): 0.9969 ± 0.0088
FAF1 (UniProt Q9UNN5) is entered as NP40-soluble protein abundance (concentration: 0.1mM): 0.994 ± 0.017; NP40-soluble protein abundance (concentration: 0.5mM): 0.996 ± 0.036
UniProt Q9UGJ1 and related entries is entered as NP40-soluble protein abundance (concentration: 0.1mM): 1.05 ± 0.073; NP40-soluble protein abundance (concentration: 0.5mM): 1.03 ± 0.07
UniProt Q9UJD0 is entered as NP40-soluble protein abundance (concentration: 0.1mM): 0.992 ± 0.02; NP40-soluble protein abundance (concentration: 0.5mM): 1.01 ± 0.024
